PubChem BioAssay AID1508588 – Peter MacCallum Cancer Centre – 2020
Aim: 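Genome-wide search for knock-downs that heighten vemurafenib action in melanoma cells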 (primary screen). Cells: human WM266.4 melanoma cells (BRAF V600 mutant). Reagent: siRNA pool against human genes, 40 nM. Time to read-out: 96 h from transfection to read-out. Conditions: vemurafenib 300 nM (about IC25), added 48 h after transfection, for 48 h; comparison arm got DMSO vehicle only. Measured: 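Ratios to non-targeting siRNA for cell gain, counted as DAPI nuclei after minus before drug and averaged over two replicates, and for absorbance-read medium lactate per cell; both binned into fold-change classes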. Reading the numbers: cell gain with vemurafenib: higher = more cell gain than with non-targeting siRNA; lactate per cell with vemurafenib: higher = more lactate made per cell. Hit rule: 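Enhancement is called by pairing each knock-down's vehicle-arm and drug-arm fold-change classes for viability or glycolysis; which class combinations qualify is not given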. Meaning of the calls: active = enhances vemurafenib effect; inactive = no enhancement seen.
Shown is an unselected part of about 18,000 reagents tested. Of all reagents, 790 (4.4%) were called active. 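Calls rest on a combination of fold-change classes in drug and vehicle arms, not all shown here.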 No sequences are given here.

How did the screen score CACFD1 [SID135623967]?
cell gain with vemurafenib: 0.71; lactate per cell with vemurafenib: 0.6; Call: inactive

With SLC7A14 [SID152154133], what was measured?
cell gain with vemurafenib: 1.08; lactate per cell with vemurafenib: 1.19; Call: inactive

For VPS16 [SID134317245], how do the results read?
cell gain with vemurafenib: 0.51; lactate per cell with vemurafenib: 0.66; Call: inactive

With COL18A1 [SID152148915], what was measured?
cell gain with vemurafenib: 0.53; lactate per cell with vemurafenib: 0.5; Call: inactive

How did the screen score ANLN [SID135621262]?
cell gain with vemurafenib: 0.05; lactate per cell with vemurafenib: 1.72; Call: inactive

With DMD [SID134316126], what was measured?
cell gain with vemurafenib: 0.33; lactate per cell with vemurafenib: 0.74; Call: inactive

For PPP4C [SID56479215], what was measured?
cell gain with vemurafenib: 0.72; lactate per cell with vemurafenib: 0.78; Call: inactive

Which result is listed for TLN1 [SID134317195]?
cell gain with vemurafenib: 0.78; lactate per cell with vemurafenib: 1.37; Call: inactive

For RRAGD [SID152147465], what was measured?
cell gain with vemurafenib: 0.44; lactate per cell with vemurafenib: 1.56; Call: inactive

Which result is listed for KLRC1 [SID135624174]?
cell gain with vemurafenib: 0.22; lactate per cell with vemurafenib: 1.05; Call: inactive

For MMP10 [SID134311377], what was measured?
cell gain with vemurafenib: 0.31; lactate per cell with vemurafenib: 0.5; Call: inactive

What is on record for TFAM [SID134323503]?
cell gain with vemurafenib: 0.98; lactate per cell with vemurafenib: 0.55; Call: inactive

Which result is listed for HUWE1 [SID134312306]?
cell gain with vemurafenib: 0.76; lactate per cell with vemurafenib: 0.52; Call: inactive

With TFPI [SID135623872], what was measured?
cell gain with vemurafenib: 0.8; lactate per cell with vemurafenib: 0.74; Call: inactive

What is on record for DEFA4 [SID134315962]?
cell gain with vemurafenib: 0.65; lactate per cell with vemurafenib: 1.08; Call: inactive

How did the screen score THAP8 [SID152153849]?
cell gain with vemurafenib: 0.23; lactate per cell with vemurafenib: 1.44; Call: inactive

With ISOC1 [SID152150159], what was measured?
cell gain with vemurafenib: 0.39; lactate per cell with vemurafenib: 1.12; Call: inactive

For SSMEM1 [SID135623064], what does the deposit list?
cell gain with vemurafenib: 0.46; lactate per cell with vemurafenib: 0.3; Call: inactive

With S100A8 [SID152151391], what was measured?
cell gain with vemurafenib: 0.35; lactate per cell with vemurafenib: 0.26; Call: inactive

With SIAH3 [SID135625108], what was measured?
cell gain with vemurafenib: 0.57; lactate per cell with vemurafenib: 1.09; Call: inactive

For TAFAZZIN [SID134314338], how do the results read?
cell gain with vemurafenib: 0.7; lactate per cell with vemurafenib: 0.5; Call: inactive

With TAOK2 [SID57288958], how do the results read?
cell gain with vemurafenib: 0.78; lactate per cell with vemurafenib: 1.01; Call: inactive

How did the screen score NFIA [SID134313520]?
cell gain with vemurafenib: 0.78; lactate per cell with vemurafenib: 0.71; Call: inactive

With OR10A2 [SID135624608], what does the deposit list?
cell gain with vemurafenib: 0.16; lactate per cell with vemurafenib: 1.34; Call: inactive

For TGM6 [SID152151288], what was measured?
cell gain with vemurafenib: 0.89; lactate per cell with vemurafenib: 0.14; Call: active

For SEH1L [SID152146851], how do the results read?
cell gain with vemurafenib: -0.22; lactate per cell with vemurafenib: 0.3; Call: inactive

How did the screen score MYL6B [SID152147074]?
cell gain with vemurafenib: 0.5; lactate per cell with vemurafenib: 1.6; Call: inactive

With NUDCD1 [SID135623472], how do the results read?
cell gain with vemurafenib: 0.8; lactate per cell with vemurafenib: 0.65; Call: inactive

For KNDC1 [SID152151432], what does the deposit list?
cell gain with vemurafenib: 0.98; lactate per cell with vemurafenib: 1.09; Call: inactive

Which result is listed for USP51 [SID152153883]?
cell gain with vemurafenib: 0.6; lactate per cell with vemurafenib: 0.82; Call: inactive

For CAMKMT [SID135622744], how do the results read?
cell gain with vemurafenib: 0.59; lactate per cell with vemurafenib: 0.62; Call: inactive

For ZFPM2 [SID134316678], what does the deposit list?
cell gain with vemurafenib: 0.18; lactate per cell with vemurafenib: 0.8; Call: active

With IL36G [SID135621477], what does the deposit list?
cell gain with vemurafenib: 0.52; lactate per cell with vemurafenib: 1.5; Call: inactive

How did the screen score SPMIP2 [SID135622965]?
cell gain with vemurafenib: 0.58; lactate per cell with vemurafenib: 0.32; Call: inactive

Which result is listed for MOGAT1 [SID152154574]?
cell gain with vemurafenib: 0.92; lactate per cell with vemurafenib: 1.29; Call: inactive

What is on record for DUOX1 [SID134313052]?
cell gain with vemurafenib: 0.42; lactate per cell with vemurafenib: 1.12; Call: inactive

With SLC25A28 [SID152152427], what does the deposit list?
cell gain with vemurafenib: 0.26; lactate per cell with vemurafenib: 1.45; Call: inactive

How did the screen score PGM1 [SID134315305]?
cell gain with vemurafenib: 0.79; lactate per cell with vemurafenib: 0.56; Call: inactive

What is on record for AP2A1 [SID134316760]?
cell gain with vemurafenib: 0.07; lactate per cell with vemurafenib: 0.6; Call: inactive

With GLUD2 [SID135621701], what was measured?
cell gain with vemurafenib: 0.82; lactate per cell with vemurafenib: 0.62; Call: inactive

With NDUFAF2 [SID152153002], what does the deposit list?
cell gain with vemurafenib: 0.78; lactate per cell with vemurafenib: 0.63; Call: inactive

For RPL30 [SID134317822], what was measured?
cell gain with vemurafenib: 0; lactate per cell with vemurafenib: 1.66; Call: inactive

What is on record for GFPT2 [SID135621940]?
cell gain with vemurafenib: 0.93; lactate per cell with vemurafenib: 0.92; Call: inactive

What did the screen give for SCYL3 [SID56479033]?
cell gain with vemurafenib: 0.75; lactate per cell with vemurafenib: 0.78; Call: inactive

What is on record for EXD3 [SID135623452]?
cell gain with vemurafenib: 0.4; lactate per cell with vemurafenib: 1.83; Call: inactive

For WBP2NL [SID134321134], what was measured?
cell gain with vemurafenib: 1.39; lactate per cell with vemurafenib: 0.4; Call: inactive

With MDK [SID152147128], what was measured?
cell gain with vemurafenib: 0.54; lactate per cell with vemurafenib: 1.79; Call: inactive

With AADACL2 [SID152153427], what does the deposit list?
cell gain with vemurafenib: 0.42; lactate per cell with vemurafenib: 1.22; Call: inactive

With NOP2 [SID152152649], what was measured?
cell gain with vemurafenib: 0.09; lactate per cell with vemurafenib: 1.59; Call: inactive

Which result is listed for SCRIB [SID134315001]?
cell gain with vemurafenib: 0.71; lactate per cell with vemurafenib: 0.6; Call: inactive

What is on record for ZFAND2A [SID134322825]?
cell gain with vemurafenib: 0.24; lactate per cell with vemurafenib: 1.66; Call: inactive

What did the screen give for SIRT1 [SID152156258]?
cell gain with vemurafenib: 0.82; lactate per cell with vemurafenib: 0.97; Call: inactive
